Reference: doi:10.1101/2025.04.11.648320 (bioRxiv, 2025)
Results are given in words; binding and its absence hold for the method and conditions named. Binding can be weak; no strength is given. Sequences can lack the tags named with a protein. For part of these data: In cells and extracts the contact can be indirect.

By UniProt entry, the sequences of proteins in these tests, tags left out. Where a name states a change or a piece, a line headed by the entry shows the natural chain unless it says otherwise.
UniProt Q9SRH6: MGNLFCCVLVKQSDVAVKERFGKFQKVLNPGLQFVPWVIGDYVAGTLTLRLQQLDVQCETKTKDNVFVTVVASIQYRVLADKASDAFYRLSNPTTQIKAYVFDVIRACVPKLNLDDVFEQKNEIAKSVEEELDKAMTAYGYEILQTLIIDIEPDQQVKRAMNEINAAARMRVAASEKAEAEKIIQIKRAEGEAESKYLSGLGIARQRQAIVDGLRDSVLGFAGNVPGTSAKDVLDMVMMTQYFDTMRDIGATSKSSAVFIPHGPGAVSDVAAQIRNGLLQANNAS

T1: BAK1-GFP expressed in Arabidopsis protoplasts (Arabidopsis thaliana) (UniProt Q94F62)
T1 sequence: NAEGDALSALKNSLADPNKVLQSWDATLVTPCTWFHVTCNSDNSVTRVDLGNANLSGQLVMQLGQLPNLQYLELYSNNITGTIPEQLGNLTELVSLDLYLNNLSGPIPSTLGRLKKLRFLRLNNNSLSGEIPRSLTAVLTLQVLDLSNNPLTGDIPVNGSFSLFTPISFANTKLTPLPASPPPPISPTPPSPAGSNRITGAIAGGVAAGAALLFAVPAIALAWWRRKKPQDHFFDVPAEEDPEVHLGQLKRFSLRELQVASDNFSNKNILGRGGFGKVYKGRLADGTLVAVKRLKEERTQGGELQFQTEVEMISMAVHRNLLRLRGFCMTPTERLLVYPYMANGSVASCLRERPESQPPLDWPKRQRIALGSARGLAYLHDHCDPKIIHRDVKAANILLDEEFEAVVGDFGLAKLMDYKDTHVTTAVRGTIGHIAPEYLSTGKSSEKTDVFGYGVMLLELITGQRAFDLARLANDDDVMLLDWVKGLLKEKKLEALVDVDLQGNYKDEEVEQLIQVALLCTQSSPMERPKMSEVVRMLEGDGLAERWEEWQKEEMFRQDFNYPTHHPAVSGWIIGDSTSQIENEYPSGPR


Assays:
[1] = target: T1, BAK1-GFP expressed in Arabidopsis protoplasts (Arabidopsis thaliana); test: co-IP
[2] = target: HIR2, mating-based split-ubiquitin (mbSUS) fusion (Arabidopsis thaliana) (UniProt Q9SRH6); test: two-hybrid

Molecule	binding [1]	binding [2]
HIR2-HA expressed in Arabidopsis protoplasts (from UniProt Q9SRH6)	binds	–
BAK1, mating-based split-ubiquitin (mbSUS) fusion (receptor, UniProt Q94F62 26-615) NAEGDALSALKNSLADPNKVLQSWDATLVTPCTWFHVTCNSDNSVTRVDLGNANLSGQLVMQLGQLPNLQYLELYSNNITGTIPEQLGNLTELVSLDLYLNNLSGPIPSTLGRLKKLRFLRLNNNSLSGEIPRSLTAVLTLQVLDLSNNPLTGDIPVNGSFSLFTPISFANTKLTPLPASPPPPISPTPPSPAGSNRITGAIAGGVAAGAALLFAVPAIALAWWRRKKPQDHFFDVPAEEDPEVHLGQLKRFSLRELQVASDNFSNKNILGRGGFGKVYKGRLADGTLVAVKRLKEERTQGGELQFQTEVEMISMAVHRNLLRLRGFCMTPTERLLVYPYMANGSVASCLRERPESQPPLDWPKRQRIALGSARGLAYLHDHCDPKIIHRDVKAANILLDEEFEAVVGDFGLAKLMDYKDTHVTTAVRGTIGHIAPEYLSTGKSSEKTDVFGYGVMLLELITGQRAFDLARLANDDDVMLLDWVKGLLKEKKLEALVDVDLQGNYKDEEVEQLIQVALLCTQSSPMERPKMSEVVRMLEGDGLAERWEEWQKEEMFRQDFNYPTHHPAVSGWIIGDSTSQIENEYPSGPR	–	binds
CERK1, mating-based split-ubiquitin (mbSUS) fusion (receptor, UniProt A8R7E6 24-617) KCRTSCPLALASYYLENGTTLSVINQNLNSSIAPYDQINFDPILRYNSNIKDKDRIQMGSRVLVPFPCECQPGDFLGHNFSYSVRQEDTYERVAISNYANLTTMESLQARNPFPATNIPLSATLNVLVNCSCGDESVSKDFGLFVTYPLRPEDSLSSIARSSGVSADILQRYNPGVNFNSGNGIVYVPGRDPNGAFPPFKSSKQDGVGAGVIAGIVIGVIVALLLILFIVYYAYRKNKSKGDSFSSSIPLSTKADHASSTSLQSGGLGGAGVSPGIAAISVDKSVEFSLEELAKATDNFNLSFKIGQGGFGAVYYAELRGEKAAIKKMDMEASKQFLAELKVLTRVHHVNLVRLIGYCVEGSLFLVYEYVENGNLGQHLHGSGREPLPWTKRVQIALDSARGLEYIHEHTVPVYVHRDIKSANILIDQKFRAKVADFGLTKLTEVGGSATRGAMGTFGYMAPETVYGEVSAKVDVYAFGVVLYELISAKGAVVKMTEAVGEFRGLVGVFEESFKETDKEEALRKIIDPRLGDSYPFDSVYKMAELGKACTQENAQLRPSMRYIVVALSTLFSSTGNWDVGNFQNEDLVSLMSGR	–	binds
